Patent EP1433485B1, “Alpha-MSH derived peptides for treating uro-genital conditions” (MSH Pharma, Inc., priority 1999, dated 2009)
At least one compound was matched to its structure with a doubt left.

Test system: C. albicans
Experiment: C. albicans viability estimated from colonies formed
Assay type: cell-based, Candida albicans
Conditions: Figure 8; relative to control, p<0.01
Method: Clinical isolates of C. albicans were also obtained from the collection of the Department of Microbiology, Ospedale Maggiore di Milano. Cultures of C. albicans were maintained on Sabouraud's agar slants and periodically transferred to Sabouraud's agar plates and incubated for 48 hours at 28°C. To prepare stationary growth-phase yeast, a colony was taken from the agar plate, transferred into 30 ml of Sabouraud-dextrose broth, and incubated for 72 hours at 32°C. Cells were centrifuged at 1000xg for ten minutes, and the pellet was washed twice with distilled water. Cells were counted and suspended in Hank's balanced salt solution ("HBSS") to the desired concentration.
Cells were then washed in cold distilled water and diluted with HBSS to a concentration of 100 organisms/ml. One-milliliter aliquots were then dispensed on blood agar plates and incubated for 48 hours at 37°C. The organism's viability was estimated from the number of colonies formed.
The reactions were stopped after three minutes by the addition of ice cold ethanol. cAMP levels were measured in duplicates using a commercial enzyme immunoassay kit (Amersham, United Kingdom) after extraction-via the liquid-phase method according to the manufacturer's instructions. […] The effects of forskolin and ddAdo on the ability of C. albicans to form colonies were determined according to the procedures described in Example II.

## C=C[C@@]1(C)CC(=O)[C@]2(O)[C@@]3(C)[C@@H](O)CCC(C)(C)[C@@H]3[C@H](O)[C@H](OC(C)=O)[C@@]2(C)O1 [forskolin]
  growth of C. albicans: significantly inhibited the growth of C. albicans
